These results are taken from doi:10.1101/2025.09.26.678488.

Substitutions are numbered along the chain they refer to. No constants are given. Whether binding was seen depends on the method and setting. Binding seen in cells or lysates may run through a third protein. Some results given as binding are weak or reduced against the parent protein; the word gives no strength. Sequences can lack the tags named with a protein.

Test [1] has as its target T1, FLAG-PDZ_(DVL2) (minimal PDZ domain of DVL2, amino acids 265-361) (human) (UniProt O14641).
T1 sequence: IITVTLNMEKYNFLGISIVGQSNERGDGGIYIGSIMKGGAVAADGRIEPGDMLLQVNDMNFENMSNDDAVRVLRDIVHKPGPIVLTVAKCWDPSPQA
Description: co-IP.

Test [2] deals with T2, FLAG-PDZ_(DVL2) V334E (human) (UniProt O14641).
T2 sequence: T1 sequence with V70E
Description: co-IP.

B1: GFP-CTmin_(Daple) (minimal C-terminal polypeptide of Daple, amino acids 1925-2028) (domain or fragment, UniProt Q9P219 1925-2028)
chain: QLLHFSPAAAPAARTKPKAPPRSGEVATITPVRAGLSLSEGDGVPGQGCSEGLPAKSPGRSPDLAPHLGRALEDCSRGSVSKSSPASPEPGGDPQTVWYEYGCV
In the case of B1, the results for the binding entry in test [1] and in test [2] were “binds” and “no binding”, respectively.

B2: GFP-CT_(Daple) (C-terminal tail of Daple, amino acids 1378-2028) (domain or fragment, UniProt Q9P219 1378-2028)
chain: RRHKEKLEEKIMDQYKFYDPPPKKKNHWIGAKALVKLIKPKKEGSRERLKSTVDSPPWQLESSDPASPAASQPLRSQAENPDTPALGSNCAEERDAHNGSVGKGPGDLKPKRGSPHRGSLDRTDASTDLAMRSWPSELGSRTCSTSATTTAPSNSTPIARHPGRTKGYNSDDNLCEPSLEFEVPNHRQYVSRPSSLESSRNTSSNSSPLNLKGSSEQLHGRSESFSSEDLIPSRDLATLPREASTPGRNALGRHEYPLPRNGPLPQEGAQKRGTAPPYVGVRPCSASPSSEMVTLEEFLEESNRSSPTHDTPSCRDDLLSDYFRKASDPPAIGGQPGPPAKKEGAKMPTNFVAPTVKMAAPTSEGRPLKPGQYVKPNFRLTEAEAPPSVAPRQAQPPQSLSLGRPRQAPVPPASHAPASRSASLSRAFSLASADLLRASGPEACKQESPQKLGAPEALGGRETGSHTLQSPAPPSSHSLARERTPLVGKAGSSCQGPGPRSRPLDTRRFSLAPPKEERLAPLHQSATAPAIATAGAGAAAAGSGSNSQLLHFSPAAAPAARTKPKAPPRSGEVATITPVRAGLSLSEGDGVPGQGCSEGLPAKSPGRSPDLAPHLGRALEDCSRGSVSKSSPASPEPGGDPQTVWYEYGCV
Turning to B2, the binding result in test [1] is “binds”; in test [2] it was “no binding”.

B3: GFP-CTΔPBM_(Daple) (minimal Daple CT that lacked its PBM) (domain or fragment, UniProt Q9P219 1925-2020)
chain: QLLHFSPAAAPAARTKPKAPPRSGEVATITPVRAGLSLSEGDGVPGQGCSEGLPAKSPGRSPDLAPHLGRALEDCSRGSVSKSSPASPEPGGDPQT
On to B3, for which the binding result in test [1] is listed as “no binding”.
